Laboratory results as given in paper PMC13318124.
No constants are given. Whether binding was seen depends on the method and setting. In cells and extracts the contact can be indirect. Some binding calls cover weakened binding; strength is not graded here.

By UniProt entry, the sequences of proteins in these tests, tags left out. Residues count along the entry.
UniProt Q01705, residues 19-2531: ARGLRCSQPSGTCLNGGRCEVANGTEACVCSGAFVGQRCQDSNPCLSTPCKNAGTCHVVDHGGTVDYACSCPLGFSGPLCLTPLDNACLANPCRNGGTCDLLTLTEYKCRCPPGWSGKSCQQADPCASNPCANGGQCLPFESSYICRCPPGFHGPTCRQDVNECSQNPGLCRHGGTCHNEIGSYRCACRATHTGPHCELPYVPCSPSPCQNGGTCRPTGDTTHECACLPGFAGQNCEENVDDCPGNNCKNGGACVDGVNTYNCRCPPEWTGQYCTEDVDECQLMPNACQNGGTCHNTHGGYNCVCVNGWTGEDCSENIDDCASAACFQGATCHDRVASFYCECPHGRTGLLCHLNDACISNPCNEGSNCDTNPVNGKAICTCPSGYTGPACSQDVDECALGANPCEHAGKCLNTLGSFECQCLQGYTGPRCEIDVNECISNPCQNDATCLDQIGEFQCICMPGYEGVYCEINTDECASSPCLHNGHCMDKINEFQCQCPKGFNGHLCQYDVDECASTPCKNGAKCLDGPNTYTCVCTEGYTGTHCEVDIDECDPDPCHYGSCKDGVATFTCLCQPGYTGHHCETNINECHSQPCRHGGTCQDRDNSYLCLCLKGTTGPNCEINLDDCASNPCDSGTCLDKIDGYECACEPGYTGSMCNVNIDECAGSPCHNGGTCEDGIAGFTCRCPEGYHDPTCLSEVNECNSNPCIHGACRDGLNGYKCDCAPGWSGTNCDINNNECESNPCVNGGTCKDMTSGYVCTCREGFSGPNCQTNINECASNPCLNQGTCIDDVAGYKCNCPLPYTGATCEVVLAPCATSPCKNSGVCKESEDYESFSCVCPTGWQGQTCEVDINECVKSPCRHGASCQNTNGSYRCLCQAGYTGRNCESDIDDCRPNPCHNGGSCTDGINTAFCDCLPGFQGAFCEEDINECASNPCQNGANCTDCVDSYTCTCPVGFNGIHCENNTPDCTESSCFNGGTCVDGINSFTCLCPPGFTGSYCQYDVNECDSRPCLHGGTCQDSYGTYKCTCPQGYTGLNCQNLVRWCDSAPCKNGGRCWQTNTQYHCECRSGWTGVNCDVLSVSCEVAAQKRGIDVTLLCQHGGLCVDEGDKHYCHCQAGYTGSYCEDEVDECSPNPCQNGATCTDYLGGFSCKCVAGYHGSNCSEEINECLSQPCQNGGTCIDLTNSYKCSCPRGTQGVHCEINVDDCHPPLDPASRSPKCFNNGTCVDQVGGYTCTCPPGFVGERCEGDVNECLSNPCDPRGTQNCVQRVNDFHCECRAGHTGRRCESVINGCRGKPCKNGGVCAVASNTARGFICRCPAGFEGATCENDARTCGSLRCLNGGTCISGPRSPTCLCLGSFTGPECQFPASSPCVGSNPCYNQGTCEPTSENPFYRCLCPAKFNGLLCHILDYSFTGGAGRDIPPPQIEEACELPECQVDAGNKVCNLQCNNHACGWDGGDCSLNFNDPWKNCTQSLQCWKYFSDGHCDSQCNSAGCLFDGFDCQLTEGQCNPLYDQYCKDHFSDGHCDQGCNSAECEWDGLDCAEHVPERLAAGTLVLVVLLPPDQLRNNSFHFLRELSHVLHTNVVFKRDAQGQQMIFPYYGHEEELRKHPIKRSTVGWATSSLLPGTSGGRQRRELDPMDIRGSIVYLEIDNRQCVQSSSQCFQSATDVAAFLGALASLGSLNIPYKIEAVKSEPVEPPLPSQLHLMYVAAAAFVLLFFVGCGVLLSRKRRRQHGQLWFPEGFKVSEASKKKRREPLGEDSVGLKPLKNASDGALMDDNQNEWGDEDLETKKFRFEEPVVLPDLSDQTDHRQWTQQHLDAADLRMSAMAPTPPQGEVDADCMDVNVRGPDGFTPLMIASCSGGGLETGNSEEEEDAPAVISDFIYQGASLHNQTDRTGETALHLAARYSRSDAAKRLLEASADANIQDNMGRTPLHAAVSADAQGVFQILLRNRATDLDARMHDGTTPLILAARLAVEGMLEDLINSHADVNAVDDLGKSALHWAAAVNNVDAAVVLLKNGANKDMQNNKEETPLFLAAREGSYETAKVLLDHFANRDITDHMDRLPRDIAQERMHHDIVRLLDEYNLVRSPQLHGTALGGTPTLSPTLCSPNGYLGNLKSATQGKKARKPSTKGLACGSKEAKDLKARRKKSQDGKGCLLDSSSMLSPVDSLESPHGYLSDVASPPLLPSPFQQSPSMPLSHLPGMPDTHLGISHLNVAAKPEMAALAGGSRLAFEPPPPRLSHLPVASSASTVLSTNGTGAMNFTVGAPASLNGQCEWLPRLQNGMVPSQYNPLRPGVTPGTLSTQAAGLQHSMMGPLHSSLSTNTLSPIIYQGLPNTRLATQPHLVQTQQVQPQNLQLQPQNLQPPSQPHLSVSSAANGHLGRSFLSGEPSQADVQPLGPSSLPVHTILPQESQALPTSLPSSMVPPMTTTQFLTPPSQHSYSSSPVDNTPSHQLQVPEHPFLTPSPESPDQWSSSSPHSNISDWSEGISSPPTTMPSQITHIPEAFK
UniProt Q61982, residues 40-2318: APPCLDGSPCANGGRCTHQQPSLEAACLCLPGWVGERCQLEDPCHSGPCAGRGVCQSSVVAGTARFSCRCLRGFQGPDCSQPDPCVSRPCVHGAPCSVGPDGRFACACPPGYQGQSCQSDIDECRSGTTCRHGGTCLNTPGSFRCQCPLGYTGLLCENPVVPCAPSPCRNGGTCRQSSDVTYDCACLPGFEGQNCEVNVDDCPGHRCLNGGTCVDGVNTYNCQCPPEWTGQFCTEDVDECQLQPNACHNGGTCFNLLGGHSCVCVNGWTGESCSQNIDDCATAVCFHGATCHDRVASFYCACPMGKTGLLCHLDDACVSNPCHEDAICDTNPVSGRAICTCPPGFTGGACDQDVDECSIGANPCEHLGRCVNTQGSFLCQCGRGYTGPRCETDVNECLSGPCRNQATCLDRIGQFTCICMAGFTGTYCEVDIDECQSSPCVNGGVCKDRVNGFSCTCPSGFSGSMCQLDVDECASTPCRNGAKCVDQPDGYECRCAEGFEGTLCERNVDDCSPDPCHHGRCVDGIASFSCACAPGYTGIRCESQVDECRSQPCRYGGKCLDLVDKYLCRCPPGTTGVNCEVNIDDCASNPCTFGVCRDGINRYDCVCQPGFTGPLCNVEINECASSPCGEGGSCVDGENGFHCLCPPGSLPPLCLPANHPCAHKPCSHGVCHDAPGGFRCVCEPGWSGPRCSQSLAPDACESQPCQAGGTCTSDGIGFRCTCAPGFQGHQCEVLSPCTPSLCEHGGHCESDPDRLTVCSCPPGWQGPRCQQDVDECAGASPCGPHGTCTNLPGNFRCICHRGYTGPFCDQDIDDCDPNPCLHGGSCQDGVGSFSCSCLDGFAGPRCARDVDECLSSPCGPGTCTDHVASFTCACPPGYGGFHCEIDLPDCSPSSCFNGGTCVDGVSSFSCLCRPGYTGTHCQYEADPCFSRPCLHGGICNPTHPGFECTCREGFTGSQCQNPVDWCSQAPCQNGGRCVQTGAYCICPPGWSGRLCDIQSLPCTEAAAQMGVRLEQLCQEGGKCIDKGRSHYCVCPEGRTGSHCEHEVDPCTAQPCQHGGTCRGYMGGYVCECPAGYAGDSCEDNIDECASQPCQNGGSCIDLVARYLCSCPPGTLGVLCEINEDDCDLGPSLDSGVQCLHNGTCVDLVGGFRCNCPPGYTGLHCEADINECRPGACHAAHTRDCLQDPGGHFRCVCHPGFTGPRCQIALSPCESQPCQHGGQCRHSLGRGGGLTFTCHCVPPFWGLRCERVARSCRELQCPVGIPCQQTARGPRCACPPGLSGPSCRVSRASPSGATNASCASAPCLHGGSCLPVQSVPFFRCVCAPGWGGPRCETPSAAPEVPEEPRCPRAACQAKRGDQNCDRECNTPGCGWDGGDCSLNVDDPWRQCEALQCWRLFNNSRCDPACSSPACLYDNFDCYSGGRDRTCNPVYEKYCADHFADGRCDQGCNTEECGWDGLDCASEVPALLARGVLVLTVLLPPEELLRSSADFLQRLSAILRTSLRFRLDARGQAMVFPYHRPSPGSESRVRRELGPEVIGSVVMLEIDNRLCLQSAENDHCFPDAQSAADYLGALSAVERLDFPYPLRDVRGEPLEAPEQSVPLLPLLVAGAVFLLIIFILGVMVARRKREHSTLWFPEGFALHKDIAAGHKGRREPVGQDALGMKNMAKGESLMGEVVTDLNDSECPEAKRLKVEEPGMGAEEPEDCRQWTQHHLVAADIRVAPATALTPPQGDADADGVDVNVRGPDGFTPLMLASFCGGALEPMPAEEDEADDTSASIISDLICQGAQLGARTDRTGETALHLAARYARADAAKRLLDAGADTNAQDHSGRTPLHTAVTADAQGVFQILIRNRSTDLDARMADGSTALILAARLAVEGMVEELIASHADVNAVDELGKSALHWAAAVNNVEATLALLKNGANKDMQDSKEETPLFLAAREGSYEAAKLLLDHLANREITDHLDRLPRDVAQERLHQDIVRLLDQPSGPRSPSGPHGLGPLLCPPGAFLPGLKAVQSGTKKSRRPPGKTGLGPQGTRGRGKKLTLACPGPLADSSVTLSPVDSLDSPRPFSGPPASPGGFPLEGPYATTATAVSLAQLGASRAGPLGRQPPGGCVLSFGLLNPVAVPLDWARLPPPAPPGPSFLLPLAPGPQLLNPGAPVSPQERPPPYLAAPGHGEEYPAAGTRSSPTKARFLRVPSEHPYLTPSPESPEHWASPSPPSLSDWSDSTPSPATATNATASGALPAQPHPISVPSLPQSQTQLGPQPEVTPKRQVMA
UniProt Q9QYE5, residues 24-1247: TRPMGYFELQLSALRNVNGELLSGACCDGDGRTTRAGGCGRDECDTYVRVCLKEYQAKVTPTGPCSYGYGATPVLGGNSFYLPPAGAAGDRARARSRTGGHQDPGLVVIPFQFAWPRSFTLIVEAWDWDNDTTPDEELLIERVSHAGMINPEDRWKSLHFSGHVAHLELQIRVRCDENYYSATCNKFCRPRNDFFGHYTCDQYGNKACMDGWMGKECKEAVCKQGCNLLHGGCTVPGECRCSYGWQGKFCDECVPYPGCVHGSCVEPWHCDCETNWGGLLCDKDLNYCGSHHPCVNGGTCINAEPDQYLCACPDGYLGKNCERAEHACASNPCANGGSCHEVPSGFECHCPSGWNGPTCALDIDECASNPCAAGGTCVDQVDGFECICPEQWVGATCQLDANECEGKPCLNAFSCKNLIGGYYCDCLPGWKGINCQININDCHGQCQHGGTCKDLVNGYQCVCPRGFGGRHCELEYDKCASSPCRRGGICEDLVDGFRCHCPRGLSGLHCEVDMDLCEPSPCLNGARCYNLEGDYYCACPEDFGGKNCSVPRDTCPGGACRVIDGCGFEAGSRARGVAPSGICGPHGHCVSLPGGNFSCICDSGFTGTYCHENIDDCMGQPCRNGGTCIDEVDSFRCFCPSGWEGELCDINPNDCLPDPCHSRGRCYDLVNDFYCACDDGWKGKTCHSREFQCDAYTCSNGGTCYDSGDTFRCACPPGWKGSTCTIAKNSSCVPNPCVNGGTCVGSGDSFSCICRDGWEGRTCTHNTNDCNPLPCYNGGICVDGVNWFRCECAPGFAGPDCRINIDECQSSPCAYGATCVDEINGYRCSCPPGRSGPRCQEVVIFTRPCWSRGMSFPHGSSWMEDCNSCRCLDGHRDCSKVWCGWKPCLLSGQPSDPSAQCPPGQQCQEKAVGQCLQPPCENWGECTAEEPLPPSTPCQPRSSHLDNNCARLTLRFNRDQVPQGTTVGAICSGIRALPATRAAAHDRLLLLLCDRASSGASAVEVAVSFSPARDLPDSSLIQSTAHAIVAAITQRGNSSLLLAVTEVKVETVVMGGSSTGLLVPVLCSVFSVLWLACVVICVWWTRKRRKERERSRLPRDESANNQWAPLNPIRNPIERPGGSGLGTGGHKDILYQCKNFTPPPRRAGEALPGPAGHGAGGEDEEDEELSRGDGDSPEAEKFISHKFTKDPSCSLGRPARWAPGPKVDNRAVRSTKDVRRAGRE

Columns and labels:
Assay in all cases: proximity ligation; DuoLink in situ PLA in MuSCs fixed with 4% PFA and permeabilised with PBS + 0.2% Triton X-100; anti-JAG2 with anti-NOTCH1, anti-NOTCH2 or anti-NOTCH3 antibodies, anti-rabbit minus and anti-mouse plus probes; control without antibodies
[1] = target: NOTCH2, mouse, in muscle stem cells (MuSCs) (mouse (endogenous in MuSCs)) (UniProt O35516)
[2] = target: NOTCH1, mouse, in muscle stem cells (MuSCs) (mouse (endogenous in MuSCs)) (UniProt Q01705)
[3] = target: NOTCH3, mouse, in muscle stem cells (MuSCs) (mouse (endogenous in MuSCs)) (UniProt Q61982)

binding [1]: binds
binding [2]: binds
binding [3]: binds
Substance: JAG2 (JAGGED2), mouse, in muscle stem cells (MuSCs) (from UniProt Q9QYE5 24-1247) (ligand)
